The list shows only some results of the screen, not a fair sample: it gathers tests that were run many times, whatever their T/C, doses with no T/C, and many T/C values between a quarter and a half above the control. Other doses and runs of a compound stand elsewhere. T/C gives the treated animals as a percentage of the vehicle group. Schedules are NCI's codes, read here as Q, the interval in days (D) or hours (H), X, the number of doses. Some T/C values carry the count of animals alive at the toxicity check (mostly the fifth day); where none is given, no animal had died by that day. Some doses were run more than once; the values are given in rising order. Some entries give survivors of the animals treated and no T/C: the source files T/C as zero there, which appears to mark a toxic dose or a test without result, not a measured value. Counts of survivors are from the toxicity check (mostly the fifth day) where no day follows; animals may have died later.
Tested on: nude mice, A549 intrarenal xenograft, tumor weight change
Assay: NCI In Vivo Anticancer Drug Screen. Data for tumor model A549 Human Adenocarcinoma of Lung with characteristics of Type II Alveolar Epithelial cells (intrarenal inoculation) in NU/NU BALB/C (nude) mice
Conditions: T/C endpoint: mean tumor weight change, higher T/C = larger tumour; for T/C: evaluated on day 12
Summary of the method: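 Activity is expressed as T/C: the treated-group value over the vehicle-treated control value. The measure was survival or tumor size in mice carrying transplantable tumors.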

[1] = dose: 150.0 mg/kg/injection, schedule: Q04DX003 (ip), vehicle: Klucel (hydroxypropylcellulose) (HPC)
[2] = dose: 200.0 mg/kg/injection, schedule: Q04DX003 (ip), vehicle: saline
[3] = dose: 600.0 mg/kg/injection, schedule: Q04DX003 (ip), vehicle: Klucel (hydroxypropylcellulose) (HPC)
[4] = dose: 300.0 mg/kg/injection, schedule: Q04DX003 (ip), vehicle: Klucel (hydroxypropylcellulose) (HPC)
[5] = dose: 1200.0 mg/kg/injection, schedule: Q04DX003 (ip), vehicle: saline with Tween-80

c1cn[nH]c1 was tested, and the T/C (dose: 150.0 mg/kg/injection, schedule: Q04DX003 (ip), vehicle: saline) was 136 % of control, the survivor count (dose: 270.0 mg/kg/injection, schedule: Q04DX003 (ip), vehicle: saline) was 3 of 6 on day 12 and the survivor count (dose: 360.0 mg/kg/injection, schedule: Q04DX003 (ip), vehicle: saline) was 0 of 6 on day 12. For the same compound, the survivor count (dose: 379.0 mg/kg/injection, schedule: Q04DX003 (ip), vehicle: saline) was 1 of 6 on day 12, the survivor count (dose: 506.0 mg/kg/injection, schedule: Q04DX003 (ip), vehicle: saline) was 1 of 6 on day 12 and the survivor count (dose: 600.0 mg/kg/injection, schedule: Q04DX003 (ip), vehicle: saline) was 2 of 6 on day 12. For the same compound, the survivor count (dose: 675.0 mg/kg/injection, schedule: Q04DX003 (ip), vehicle: saline) was 0 of 6 on day 12, the survivor count (dose: 900.0 mg/kg/injection, schedule: Q04DX003 (ip), vehicle: saline) was 0 of 6 on day 12 and the survivor count (dose: 1200.0 mg/kg/injection, schedule: Q04DX003 (ip), vehicle: saline) was 0 of 6 on day 12.

With COC1=C(C)C(=O)C2=C(C1=O)C(CO)N1C(C#N)C3CC4C(C1C2N1CCOC41)N3C (stereo unspecified) the survivor count (dose: 5.0 mg/kg/injection, schedule: Q04DX003 (ip), vehicle: saline + alcohol) was 0 of 6 on day 12 and the survivor count (dose: 10.0 mg/kg/injection, schedule: Q04DX003 (ip), vehicle: saline + alcohol) was 0 of 6 on day 12.

For CN(C)/N=N/c1nc[nH]c1C(N)=O, the T/C (dose: 100.0 mg/kg/injection, schedule: Q04DX003 (ip), vehicle: Klucel (hydroxypropylcellulose) (HPC)) was 32, 74 [5 of 6 alive on day 12], 97, 123 % of control, the T/C [1] was 25, 26, 100, 122 % of control and the T/C (dose: 225.0 mg/kg/injection, schedule: Q04DX003 (ip), vehicle: Klucel (hydroxypropylcellulose) (HPC)) was 28, 47, 58, 76 % of control.

With COC1=C(OC)C(=O)C(N(C)C)=C(CO)C1=O the T/C [2] was 147 % of control [5 of 6 alive on day 12] and the survivor count (dose: 400.0 mg/kg/injection, schedule: Q04DX003 (ip), vehicle: saline) was 0 of 6 on day 12.

In the case of CN(C)c1ccc2c(SCC(=O)OCC(=O)[C@@]3(O)CC[C@H]4[C@@H]5CCC6=CC(=O)C=C[C@]6(C)[C@H]5C(=O)C[C@@]43C)c3ccc(N(C)C)cc3nc2c1, the survivor count [3] is reported as 1 of 6 on day 12.

With C=C1c2cccc(O)c2C(O)=C2C(=O)[C@]3(O)C(O)=C(C(N)=O)C(=O)[C@@H](N(C)C)[C@@H]3[C@@H](O)[C@H]12 the survivor count [1] was 3 of 6 on day 12, the survivor count [4] was 0 of 6 on day 12 and the survivor count [3] was 0 of 6 on day 12.

With O=C1c2ccccc2C(Cl)(c2ccc(Cl)cc2)c2ccc(Cl)cc21 (stereo unspecified) the T/C (dose: 300.0 mg/kg/injection, schedule: Q04DX003 (ip), vehicle: saline with Tween-80) was 145 % of control, the survivor count (dose: 600.0 mg/kg/injection, schedule: Q04DX003 (ip), vehicle: saline with Tween-80) was 2 of 6 on day 12 and the survivor count [5] was 1 of 6 on day 12.

For CCOc1ccc(-c2nc3ccc(-c4nc5ccc(N6CCN(C)CC6)cc5[nH]4)cc3[nH]2)cc1, the T/C (dose: 12.5 mg/kg/injection, schedule: Q04DX003 (ip), vehicle: saline) was 139 % of control.

In the case of O=C(Nc1cc(Cl)ccc1C(=O)O)c1cccc(C[n+]2ccccc2)c1, the survivor count [5] is reported as 1 of 6 on day 12.

CCN(CC)CC(C)(C)C(=O)/C=C/c1ccc(/C=C/C(=O)C(C)(C)CN(CC)CC)cc1 was tested, and the survivor count (dose: 120.0 mg/kg/injection, schedule: Q04DX003 (ip), vehicle: saline) was 0 of 6 on day 12.

With O=S(=O)(c1cccc(N=C=S)c1)c1cccc(N=C=S)c1 the T/C (dose: 60.0 mg/kg/injection, schedule: Q04DX003 (ip), vehicle: Klucel (hydroxypropylcellulose) (HPC)) was 135 % of control, the survivor count (dose: 120.0 mg/kg/injection, schedule: Q04DX003 (ip), vehicle: Klucel (hydroxypropylcellulose) (HPC)) was 0 of 6 on day 12 and the survivor count (dose: 240.0 mg/kg/injection, schedule: Q04DX003 (ip), vehicle: Klucel (hydroxypropylcellulose) (HPC)) was 0 of 6 on day 12.

[CH3][Sn]([CH3])([Cl])[c]1cc[c]([Sn]([CH3])([CH3])[Cl])cc1 was tested, and the survivor count (dose: 10.0 mg/kg/injection, schedule: Q04DX003 (ip), vehicle: saline) was 0 of 6 on day 12.

For CN=C(N)c1ccc(N=C(N)c2ccc(C(N)=Nc3ccc(C(N)=NC)cc3)cc2)cc1, the survivor count (dose: 30.0 mg/kg/injection, schedule: Q06HX010 (ip), vehicle: water) was 0 of 6 on day 12 and the survivor count (dose: 45.0 mg/kg/injection, schedule: Q06HX010 (ip), vehicle: water) was 0 of 6 on day 12.

Nc1nc2n[nH]nc2c(=O)[nH]1 was tested, and the survivor count (dose: 600.0 mg/kg/injection, schedule: Q04DX003 (ip), vehicle: suspension in saline) was 2 of 6 on day 12.

In the case of CC#CCOCC(O)CCl (stereo unspecified), the survivor count (dose: 800.0 mg/kg/injection, schedule: Q04DX003 (ip), vehicle: saline) is reported as 2 of 6 on day 12.

In the case of S=C1CCCCN1, the survivor count (dose: 300.0 mg/kg/injection, schedule: Q04DX003 (ip), vehicle: distilled water + Tween-80 + alcohol) is reported as 0 of 6 on day 12 and the survivor count (dose: 600.0 mg/kg/injection, schedule: Q04DX003 (ip), vehicle: distilled water + Tween-80 + alcohol) is reported as 0 of 6 on day 12.

For Cc1c2ccccc2c(C)c2c1cc(C(=O)O)c1ccccc12, the T/C (dose: 75.0 mg/kg/injection, schedule: Q04DX003 (ip), vehicle: saline with Tween-80) was 132 % of control.

Cc1ccc(C(=O)Nc2ccc(S(=O)(=O)O)c3cc(S(=O)(=O)O)cc(S(=O)(=O)O)c23)cc1NC(=O)c1cccc(NC(=O)Nc2cccc(C(=O)Nc3cc(C(=O)Nc4ccc(S(=O)(=O)O)c5cc(S(=O)(=O)O)cc(S(=O)(=O)O)c45)ccc3C)c2)c1 was tested, and the T/C [2] was 142 % of control.

For CCCCCC[Se][Se]CCCCCC, the survivor count (dose: 75.0 mg/kg/injection, schedule: Q04DX003 (ip), vehicle: Klucel (hydroxypropylcellulose) (HPC)) was 2 of 6 on day 12, the survivor count [1] was 0 of 6 on day 12 and the survivor count [4] was 0 of 6 on day 12. The survivor count [3] was 0 of 6 on day 12.

For COc1cc2c(cc1OC)[C@@H]1C(=O)c3ccc4c(c3O[C@@H]1CO2)C[C@H](C(C)C)O4, the survivor count (dose: 170.0 mg/kg/injection, schedule: Q04DX003 (ip), vehicle: Klucel (hydroxypropylcellulose) (HPC)) was 0 of 6 on day 12.

COC(=O)C1(F)C(=O)NC(=O)NC1OC (stereo unspecified) was tested, and the T/C (dose: 200.0 mg/kg/injection, schedule: Q04DX003 (ip), vehicle: Klucel (hydroxypropylcellulose) (HPC)) was 139 % of control.

In the case of CCCCCNc1ncnc2c(C)[nH]nc12, the survivor count [4] is reported as 0 of 6 on day 12.

With NC(=S=O)C(N)=S=O the survivor count (dose: 1000.0 mg/kg/injection, schedule: Q04DX003 (ip), vehicle: saline with Tween-80) was 2 of 6 on day 12.

Reference: PubChem BioAssay AID278 (DTP/NCI, 2004)
